The structures given here were assigned with low confidence; some may be wrong.
Molecular target: FSHR (Homo sapiens, UniProt P23945)
Test: EC50 of cyclic AMP production in CHO FSHR cells + EC20 FSH (HTRF)
Settings: Cho-FSHR-LUC-1-1-43 cells
Method: EC50 of Cyclic AMP Production in CHO FSHR Cells+EC20 FSH
2500 Cho-FSHR-LUC-1-1-43 cells were plated per well in 5 μL of phenol red free DMEM/F12+1% FBS. Cells were plated in 384 well, solid white low volume plates (Greiner 784075) by Multidrop. Cells were assayed by adding […] of 2×EC20 FSH/IBMX in DMEM/F12+0.1% BSA) by Multidrop to 2 μL of test compound stamped in 384 well plates (compounds are diluted 1:50). The final FSH concentration was 0.265 pM, and the final IBMX concentration was 200 μM. The compound plate map was as follows: Column 1: 2 μL of DMSO; Column 2: 2 μL of DMSO; Columns 3-12 and 13-24: 2 μL of test compound, diluted 1:4 in 100% DMSO, or 2 μL of FSH, diluted 1:4 in DMEM/F12+0.1% BSA. The starting concentration for FSH was 50 nM (final concentration was 0.5 nM). Furthermore, Column 23 contained 2 μL of EC100 FSH reference (100×) (diluted in DMEM/F12+0.1% BSA) at a final concentration of 0.5 nM, and Column 24 contained 2 μL of 1 mM AS707664/2 reference compound 2. 5 μL of compound+EC20 FSH mixture were transferred to cell plates (1:2 dilution into 5 μL of cell media) The plates were incubated at 37° C. for 1 h. 10 μL of mixed HTRF (CisBio #62AM4PEC) reagents were added per well and incubated at room temperature for 1 h. The plates were read on Envision using the cAMP HTRF—low volume 384 well protocol. The readout was the calculated fluorescence ratio (665 nm/620 nm).

The chains behind the UniProt entries cited, without tags or fusion partners. Residues count along the entry.
UniProt P23945, 18-695 limits assumed: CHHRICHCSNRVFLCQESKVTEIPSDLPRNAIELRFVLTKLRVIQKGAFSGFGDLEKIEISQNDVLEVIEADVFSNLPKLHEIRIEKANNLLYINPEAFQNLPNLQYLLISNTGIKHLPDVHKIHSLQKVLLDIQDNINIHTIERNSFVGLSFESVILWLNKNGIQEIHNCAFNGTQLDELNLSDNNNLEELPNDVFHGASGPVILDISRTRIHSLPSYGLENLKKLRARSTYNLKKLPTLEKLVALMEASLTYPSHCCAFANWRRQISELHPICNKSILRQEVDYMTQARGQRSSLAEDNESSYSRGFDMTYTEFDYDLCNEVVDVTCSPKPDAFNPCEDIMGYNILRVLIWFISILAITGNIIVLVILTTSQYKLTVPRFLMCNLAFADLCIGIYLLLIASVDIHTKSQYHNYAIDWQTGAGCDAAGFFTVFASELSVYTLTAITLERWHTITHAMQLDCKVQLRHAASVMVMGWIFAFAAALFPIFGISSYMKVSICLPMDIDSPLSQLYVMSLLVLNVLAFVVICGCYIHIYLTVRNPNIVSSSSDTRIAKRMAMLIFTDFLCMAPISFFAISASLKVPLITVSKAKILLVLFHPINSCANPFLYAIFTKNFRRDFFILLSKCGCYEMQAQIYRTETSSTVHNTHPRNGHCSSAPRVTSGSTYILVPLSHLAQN

Structure (SMILES): [2H]c1c([2H])c([2H])c(C#Cc2c([2H])c([2H])c([C@@H]3S[C@H](CC(=O)NC([2H])([2H])C([2H])([2H])c4ccc(OC([2H])([2H])[2H])c(OCC)c4)C(=O)N3c3cccc(C(N)=O)c3)c([2H])c2[2H])c([2H])c1[2H] (single isomer, unassigned)
- EC50 of cAMP production (% effect) (+ EC20 FSH, % effect in brackets): (101) %
- EC50 (read-out: EC50 of cAMP production, + EC20 FSH (0.265 pM), 200 μM IBMX, 1 h at 37° C.): 0.7 nM
